Measurements reported in PubChem BioAssay AID504744 (Drosophila RNAi Screening Center, 2011)

- Screen: 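Find genes whose loss alters insulin-driven dAkt phosphorylation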 (primary screen)
- Cell system: Drosophila Kc167 cells
- Reagent: long dsRNA against Drosophila genes, 250 ng dsRNA per well of a 384-well plate
- Duration: 3 days of knock-down, then overnight serum-free starvation before stimulation
- Treatment: bovine insulin at 387 nM for 10 minutes after 12 h without serum
- Read-out: 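Per-well phospho-dAkt level from an in-cell fluorescent antibody stain, divided by a DNA-dye signal; log2 residuals turned into z-scores that take cell number into account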
- Rule for the call: 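Under insulin, a gene counts as a hit if the average z-score of two replicates lies above 2.5 or below -2.5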
The deposit covers about 23,000 reagents; below is an unselected part of those with a known target gene and a result. In the full data, 98 (0.43%) were called active. 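Only hit calls are given; the phospho-dAkt signals, z-scores and hit direction were not deposited.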 Reagents against one gene are numbered here. No sequences are given here.

| Gene | dsRNA no. | outcome |
| --- | --- | --- |
| sog | 1 | inactive |
| snf | 1 | inactive |
| Tbp | 1 | inactive |
| p130CAS | 1 | inactive |
| p130CAS | 2 | inactive |
| ItgaPS5 | 1 | inactive |
| Abcd3 | 1 | inactive |
| Acsx4 | 1 | inactive |
| TwdlF | 1 | inactive |
| CG12991 | 1 | inactive |
| whe | 1 | inactive |
| Nup133 | 1 | active |
| Got1 | 1 | inactive |
| Phb1 | 1 | inactive |
| Dlip3 | 1 | inactive |
| CG11585 | 1 | inactive |
| yellow-e3 | 1 | inactive |
| CG34375 | 1 | inactive |
| CG34375 | 2 | inactive |
| Amt | 1 | inactive |
| capu | 1 | inactive |
| capu | 2 | inactive |
| capu | 3 | inactive |
| capu | 4 | inactive |
| CG4766 | 1 | inactive |
| Trp1 | 1 | inactive |
| CG3829 | 1 | inactive |
| Hsp27 | 1 | inactive |
| Sol1 | 1 | inactive |
| Sol1 | 2 | inactive |
| Sol1 | 3 | inactive |
| fd19B | 1 | inactive |
| CG1999 | 1 | inactive |
| Dhfr | 1 | inactive |
| key | 1 | inactive |
| CG33061 | 1 | inactive |
| CG33061 | 2 | inactive |
| Jon44E | 1 | inactive |
| prtp | 1 | inactive |
| prtp | 2 | inactive |
| Adgf-B | 1 | inactive |
| CG31886 | 1 | inactive |
| RhoGEF4 | 1 | inactive |
| Cwc25 | 1 | inactive |
| RfC3 | 1 | inactive |
| CG14190 | 1 | inactive |
| Mad | 1 | inactive |
| kdn | 1 | inactive |
| ics | 1 | inactive |
| Gs2 | 1 | inactive |
| RpL39 | 1 | inactive |
| Est-Q | 1 | inactive |
| CG3009 | 1 | inactive |
| CG14883 | 1 | inactive |
| CG16825 | 1 | inactive |
| Hcf | 1 | inactive |
| eIF4G1 | 1 | inactive |
| CG42397 | 1 | inactive |
| LRR | 1 | inactive |
| CG15117 | 1 | inactive |
| RpL35A | 1 | inactive |
| Gyg | 1 | inactive |
| Gyg | 2 | inactive |
| CCDC151 | 1 | inactive |

Reformatted: 6 of the entries above.
CG34375 #2
- outcome: inactive

Amt
- outcome: inactive

capu #1
- outcome: inactive

capu #2
- outcome: inactive

capu #3
- outcome: inactive

capu #4
- outcome: inactive
